Values from PubChem BioAssay AID602196 (INSERM, 2012)
Purpose: 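Modifiers of cisplatin sensitivity in A549 cells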. Cells: human A549 lung cancer cells. Reagent: siRNA pair against human genes. Time to read-out: 48 h transfection before cisplatin; time from cisplatin to read-out not stated. Treatment: cisplatin at a dose killing half of control-siRNA cells; exact dose and duration not given. Detection: 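Shift in cisplatin death relative to control siRNA, from -50 (all cells die) to +50 (no cells die); siRNAs harmful on their own scored 0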. Direction: two-siRNA summed score (-2 to +2): higher = both siRNAs protect from cisplatin killing; -2 means both sensitise; mean protection from cisplatin (shift in death) and protection from cisplatin (shift in death), siRNA C and protection from cisplatin (shift in death), siRNA D: higher = protection from cisplatin killing. Active means: 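siRNAs harmful alone (LDH or WST-1) get 0; others get +1 for less and -1 for more cisplatin killing; genes are active when the two siRNAs give the same sign, summing to ±2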. Calls: active = both siRNAs shift cisplatin killing the same way; inactive = no consistent shift, or siRNA harmful alone.
Shown is one part, drawn at random, of about 23,000 deposited reagents. Of all reagents, 455 (2%) were called active. 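Active includes both protection and sensitisation; some change values fall well beyond the stated -50 to +50 range.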 Not stated in the record: the amount of reagent.

The opening 2 entries, to show the layout:
| gene knocked down | two-siRNA summed score (-2 to +2) | mean protection from cisplatin (shift in death) (%) | protection from cisplatin (shift in death), siRNA C (%) | protection from cisplatin (shift in death), siRNA D (%) | outcome |
| --- | --- | --- | --- | --- | --- |
| TUBE1 | -1 | -15.5 | -6.6 | -24.3 | inactive |
| WFIKKN2 | 1 | 20.3 | 12.8 | 27.7 | inactive |

The list itself, from the first entry:
| gene knocked down | two-siRNA summed score (-2 to +2) | mean protection from cisplatin (shift in death) (%) | protection from cisplatin (shift in death), siRNA C (%) | protection from cisplatin (shift in death), siRNA D (%) | outcome |
| --- | --- | --- | --- | --- | --- |
| TUBE1 | -1 | -15.5 | -6.6 | -24.3 | inactive |
| WFIKKN2 | 1 | 20.3 | 12.8 | 27.7 | inactive |
| CETN2 | 0 | 9.1 | 9 | 9.1 | inactive |
| ATP5ME | 0 | 8.4 | 20.1 | -3.3 | inactive |
| GPRC5C | 0 | 4.2 | 19.3 | -11 | inactive |
| AURKA | -1 | -4.9 | -14.4 | 4.5 | inactive |
| LOC441370 | 0 | 8 | 6.9 | 9 | inactive |
| KRTAP10-11 | 0 | 6.9 | 4.2 | 9.6 | inactive |
| FTSJ1 | 0 | -3.6 | -3.3 | -3.8 | inactive |
| FLJ25778 | 0 | 2.9 | 2.8 | 2.9 | inactive |
| SPTY2D1 | 0 | -10 | -3.5 | -16.5 | inactive |
| ANKRD29 | 0 | 8 | 0.3 | 15.7 | inactive |
| PRR22 | 1 | 4.7 | 12.7 | -3.2 | inactive |
| SLC26A2 | 0 | 11.8 | 11.5 | 12.1 | inactive |
| LOC440829 | 1 | 13.8 | 8.2 | 19.3 | inactive |
| TAS1R2 | 1 | 16.4 | 11.7 | 21 | inactive |
| CETP | 0 | -1.7 | -9 | 5.6 | inactive |
| LATS1 | 2 | 21.9 | 17.9 | 25.8 | active |
| LOC92270 | 0 | 4.4 | 12.2 | -3.4 | inactive |
| ARSA | 0 | -1.4 | -1.5 | -1.2 | inactive |
| KCTD5 | 0 | 3.7 | 2 | 5.4 | inactive |
| PITRM1 | -1 | -1.2 | 5.8 | -8.2 | inactive |
| NCK1 | 0 | -4.8 | -17.7 | 8.2 | inactive |
